Results: patent publication US11400107B2, “Cancer treatments” (NuCana plc, priority 2016, dated 2022)
At least one compound was matched to its structure with a doubt left.

Test system: Lin^−/CD34^+/CD38^−/CD123^+ cancer stem cells in KG1a cells
Test: Immunophenotypic quantification of the leukaemic stem cell compartment in KG1a cells
Assay type: cell-based, human
Conditions: 72 h
Description: The respective abilities of NUC-1031 and gemcitabine to target CSCs were investigated in the AML cell line KG1a.
KG1a cells were cultured for 72 hours in the presence of a wide range of concentrations of each nucleoside analogue and their respective ProTides. Cells were then harvested and labelled with a cocktail of anti-lineage antibodies (PE-cy7), anti-CD34 (FITC), anti-CD38 (PE) and anti-CD123 (PERCP cy5). The sub-population expressing a leukaemic stem cell (LSC) phenotype were subsequently identified and were expressed as a percentage of all viable cells left in the culture. The percentages of stem cells remaining were then plotted on a dose-response graph and the proportion of cancer stem cells was compared across the various concentrations of ProTides and their respective parent compounds, in order to determine if they preferentially target cancer stem cells.
The data obtained in these experiments were evaluated using one way ANOVA. All data was confirmed as Gaussian or a Gaussian approximation using the omnibus K2 test. LD50 values were calculated from the non-linear regression and line of best-fit analysis of the sigmoidal dose-response curves. All statistical analyses were performed using Graphpad Prism 6.0 software (Graphpad Software Inc., San Diego, Calif.).

Q: Nc1nc(F)nc2c1ncn2[C@@H]1O[C@H](CO)[C@@H](O)[C@@H]1O [Fludarabine] was tested. Which “proportion of cancer stem cells as compared to non-stem cancer cells after treatment” value did it give?
A: Its value is “significant decrease in the proportion of cancer stem cells”.
